# Data as given in PubChem BioAssay AID1259308 (NCATS, 2017)
# Purpose: 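Knock-downs that increase output of a recombinant reporter protein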 (primary screen)
# Cell system: human HEK293 embryonic kidney cells stably expressing firefly luciferase (HEK-CMV-Luc2-Hygro)
# Knock-down reagent: single siRNA against human genes, 0.8 pmol siRNA per well
# Duration: 72 h
# Measurement: 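Reporter luminescence and viable-cell signal on separate replicate plates, given as percent of non-targeting control and median/MAD z-scores, plus per-cell luciferase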
# Direction: total luciferase, z-score and total luciferase, % of control: higher = more reporter protein produced; luciferase per cell, z-score: higher = more reporter output per viable cell
# Rule for the call: 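Active when the median/MAD z-score for overall luciferase is greater than 3; a gene was taken forward for validation with new siRNAs if at least two of its three siRNAs passed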
# Calls: active = raised luciferase; inactive = no rise
# This is a random part of about 59,000 reagents tested. Of all reagents, about 1,510 (2.6%) are marked active. 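Calls use total luciferase alone and ignore viability, so some active siRNAs may act by altering cell number.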 A number with no mark means an inactive call. Further read-outs or replicates are left out here.
target,PubChem SID,"total luciferase, z-score","total luciferase, % of control","luciferase per cell, z-score"
ANO4,SID160755927,-0.0688,80.5,-0.594
ANO4,SID160755928,1.99,121,1.75
ANO4,SID160755929,-0.509,71.8,0.315
GPS1,SID160773837,-0.128,79.3,0.553
GPS1,SID160773848,-0.839,65.2,-0.673
GPS1,SID160773854,-0.128,79.3,1.27
MAOB,SID160776951,-0.674,68.5,-1.21
MAOB,SID160776952,0.39,89.7,0.225
MAOB,SID160776953,-0.498,72,-0.0484
TSPAN13,SID160738327,-0.838,65.2,-0.649
TSPAN13,SID160738328,-0.596,70,-0.513
TSPAN13,SID160738329,-1.4,53.9,-1.28
TBC1D28,SID160724947,-0.0788,80.3,0.0401
TBC1D28,SID160762187,-1.51,51.8,-0.832
TBC1D28,SID160762188,0.785,97.5,0.953
SACK1C,SID160756821,-0.83,65.4,0.213
SACK1C,SID160756822,0.0441,82.8,0.195
SACK1C,SID160756823,0.083,83.5,-0.901
PMPCB,SID160722380,0.118,84.2,0.0356
PMPCB,SID160722382,-0.387,74.2,-0.886
PMPCB,SID160722383,4.41 (active),170,3.91
SEPTIN9,SID160729255,-1.37,54.5,-1.35
SEPTIN9,SID160729256,-0.148,78.9,0.526
SEPTIN9,SID160729257,1.32,108,0.579
KARS1,SID160776100,-0.747,67,0.0144
KARS1,SID160776101,-1.6,50,-1.42
KARS1,SID160776102,-2.23,37.5,-2.04
KIF5C,SID160776278,1.93,120,2.37
KIF5C,SID160776279,0.262,87.1,-0.0209
KIF5C,SID160776280,0.544,92.7,0.575
IFT172,SID160737728,0.622,94.3,2.45
IFT172,SID160737729,0.459,91,0.219
IFT172,SID160737730,-0.904,63.9,-1.43
IRF7,SID160723886,0.655,94.9,0.624
IRF7,SID160731146,0.0748,83.4,-0.249
IRF7,SID160775936,1.06,103,1.01
MIR924HG,SID160734054,-0.515,71.6,-0.588
MIR924HG,SID160770273,1.78,117,2.76
MIR924HG,SID160770274,-2.34,35.4,-2.47
ENTPD8,SID160765517,-0.732,67.3,0.646
ENTPD8,SID160765518,-0.327,75.4,-0.332
ENTPD8,SID160765519,2.2,126,2.19
CBS,SID160741604,-1.96,42.9,-2.06
CBS,SID160741711,-0.218,77.5,-0.851
CBS,SID160741815,-1.19,58.1,-1.08
TAS2R43,SID160732847,-1.06,60.9,-1.13
TAS2R43,SID160762623,-0.777,66.4,-0.565
TAS2R43,SID160762625,0.428,90.4,0.605
MKNK1,SID160720359,0.113,84.1,1.75
MKNK1,SID160720361,0.516,92.2,0.0719
MKNK1,SID160720362,-0.323,75.5,-0.872
RARS2,SID160753919,-0.829,65.4,-1.04
RARS2,SID160754021,0.439,90.6,0.183
RARS2,SID160754127,-1.03,61.3,-1.63
HK3,SID160774966,-0.122,79.5,0.618
HK3,SID160774967,2.72,136,1.7
HK3,SID160774968,0.865,99.1,0.405
